These results are taken from article PMC12083247.

B1: annexin A1 (protein, UniProt P04083 1-346)
chain: MAMVSEFLKQAWFIENEEQEYVQTVKSSKGGPGSAVSPYPTFNPSSDVAALHKAIMVKGVDEATIIDILTKRNNAQRQQIKAAYLQETGKPLDETLKKALTGHLEEVVLALLKTPAQFDADELRAAMKGLGTDEDTLIEILASRTNKEIRDINRVYREELKRDLAKDITSDTSGDFRNALLSLAKGDRSEDFGVNEDLADSDARALYEAGERRKGTDVNVFNTILTTRSYPQLRRVFQKYTKYSKHDMNKVLDLELKGDIEKCLTAIVKCATSKPAFFAEKLHQAMKGVGTRHKALIRIMVSRSEIDMNDIKAFYQKMYGISLCQAILDETKGDYEKILVALCGGN
B2: annexin A7 (protein, UniProt P20073 1-488)
chain: MSYPGYPPTGYPPFPGYPPAGQESSFPPSGQYPYPSGFPPMGGGAYPQVPSSGYPGAGGYPAPGGYPAPGGYPGAPQPGGAPSYPGVPPGQGFGVPPGGAGFSGYPQPPSQSYGGGPAQVPLPGGFPGGQMPSQYPGGQPTYPSQINTDSFSSYPVFSPVSLDYSSEPATVTQVTQGTIRPAANFDAIRDAEILRKAMKGFGTDEQAIVDVVANRSNDQRQKIKAAFKTSYGKDLIKDLKSELSGNMEELILALFMPPTYYDAWSLRKAMQGAGTQERVLIEILCTRTNQEIREIVRCYQSEFGRDLEKDIRSDTSGHFERLLVSMCQGNRDENQSINHQMAQEDAQRLYQAGEGRLGTDESCFNMILATRSFPQLRATMEAYSRMANRDLLSSVSREFSGYVESGLKTILQCALNRPAFFAERLYYAMKGAGTDDSTLVRIVVTRSEIDLVQIKQMFAQMYQKTLGTMIAGDTSGDYRRLLLAIVGQ
B3: annexin A4 (protein, UniProt P09525 1-319)
chain: MATKGGTVKAASGFNAMEDAQTLRKAMKGLGTDEDAIISVLAYRNTAQRQEIRTAYKSTIGRDLIDDLKSELSGNFEQVIVGMMTPTVLYDVQELRRAMKGAGTDEGCLIEILASRTPEEIRRISQTYQQQYGRSLEDDIRSDTSFMFQRVLVSLSAGGRDEGNYLDDALVRQDAQDLYEAGEKKWGTDEVKFLTVLCSRNRNHLLHVFDEYKRISQKDIEQSIKSETSGSFEDALLAIVKCMRNKSAYFAEKLYKSMKGLGTDDNTLIRVMVSRAEIDMLDIRAHFKRLYGKSLYSFIKGDTSGDYRKVLLVLCGGDD
B4: annexin A6 (protein, UniProt P08133 1-673)
chain: MAKPAQGAKYRGSIHDFPGFDPNQDAEALYTAMKGFGSDKEAILDIITSRSNRQRQEVCQSYKSLYGKDLIADLKYELTGKFERLIVGLMRPPAYCDAKEIKDAISGIGTDEKCLIEILASRTNEQMHQLVAAYKDAYERDLEADIIGDTSGHFQKMLVVLLQGTREEDDVVSEDLVQQDVQDLYEAGELKWGTDEAQFIYILGNRSKQHLRLVFDEYLKTTGKPIEASIRGELSGDFEKLMLAVVKCIRSTPEYFAERLFKAMKGLGTRDNTLIRIMVSRSELDMLDIREIFRTKYEKSLYSMIKNDTSGEYKKTLLKLSGGDDDAAGQFFPEAAQVAYQMWELSAVARVELKGTVRPANDFNPDADAKALRKAMKGLGTDEDTIIDIITHRSNVQRQQIRQTFKSHFGRDLMTDLKSEISGDLARLILGLMMPPAHYDAKQLKKAMEGAGTDEKALIEILATRTNAEIRAINEAYKEDYHKSLEDALSSDTSGHFRRILISLATGHREEGGENLDQAREDAQVAAEILEIADTPSGDKTSLETRFMTILCTRSYPHLRRVFQEFIKMTNYDVEHTIKKEMSGDVRDAFVAIVQSVKNKPLFFADKLYKSMKGAGTDEKTLTRIMVSRSEIDLLNIRREFIEKYDKSLHQAIEGDTSGDFLKALLALCGGED

No constants are given. Whether binding was seen depends on the method and setting. In cells and extracts the contact can be indirect. A yes stands for co-enrichment or nearness to the bait. Other partners may have been found.

This assay addresses CAPN2[C105S]-3xFlag-6xHis in complex with CAPNS1(86–268). The experiment in a line: affinity purification with mass spectrometry; substrate trapping: 3xFlag baits on anti-Flag agarose; HCT116 cytosol with 2 mM CaCl2 and E64; EGTA (5 mM) elutions analysed by high-resolution mass spectrometry; only the target purified.
In the case of B1, the binding entry is reported as “binds”. For B2 the value was “binds”; for B3, “binds”. With B4 the entry was “binds”.
